These are yes or no findings as the source states them, for the method shown. A result given as binding can be weak or reduced; the word gives no strength.
Target: cynomolgus monkey CD96 on cynomolgus monkey PBMCs (cynomolgus monkey)
Assay: FACS

Row | binding | Binder
1 | binds | mAb1.v7.NGS9 IgG (antibody, V domains shown) VH: EVQLVQSGAEVKKPGASVKVSCKASGFTFTNNFMHWVRQAPGQGLEWIGMIHANSGITNINEKFKNRVTMTTDTSTSTAYMELRSLRSEDTAVYYCRSDGVYEGYFDYWGQGTLVTVSS VL: DIQLTQSPSSLSASVGDRVTITCKASQNVGTAIVWYQQKPGKAPKVLIYSASTRYTGVPSRFSGSGSGTDFTLTISSLQPEDFATYYCQQYSSSPLTFGQGTKVEIKG
2 | binds | mAb1.v7.NGS11 IgG (antibody, V domains shown) VH: EVQLVQSGAEVKKPGASVKVSCKASGFTFTNNFMHWVRQAPGQGLEWIGFIHANSGITNINEKFKNRVTMTTDTSTSTAYMELRSLRSEDTAVYYCRSDGVYEGYFDYWGQGTLVTVSS VL: DIQLTQSPSSLSASVGDRVTITCKASQNVGTAIVWYQQKPGKAPKVLIYSASTRYTGVPSRFSGSGSGTDFTLTISSLQPEDFATYYCQQYSSSPLTFGQGTKVEIKG
3 | binds | h10G1 IgG (humanized 10G1) (antibody, V domains shown) VH: EIQLVQSGSELKKPGASVKVSCKASGYPFTTYGMSWVRQAPGQGLEWMGWINTDSGVPTYADDFKGRFVFSLDTSVSTAYLQISSLKAEDTAVYFCARNIYYGWGNFDYWGQGTLVTVSS VL: EIVMTQSPDFQSVTPKEKVTITCRASQDIYRNLHWYQQKPDQTPKLLIKHASDSISGIPSRFSGSGSGTDFTLTINSLEAEDAAAYYCLQGYSMPYTFGGGTKVEIKG
